Experimental data: PubChem BioAssay AID2685 (National Center for Advancing Translational Sciences (NCATS), 2010)
This is one part of the list. Further columns of the screen follow, without active or inactive calls. Most of these compounds were active or inconclusive in the main read-out, so they are no random draw. The note in brackets gives the kind of curve behind each potency; many fits are weak.

Assay: qHTS Assay for Lipid Storage Modulators in Drosophila S3 Cells;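 for cell number change: cells counted by Cell Tracker Red CMTPX staining in the red channel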
Details: BODIPY lipid droplet fluorescence, 18-24 h; for cell number change: measured here: cell count max response, cells fed with added oleic acid
Method in brief: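 Drosophila S3 cells loaded with oleic acid (400 uM, as added) and compounds at several concentrations; lipid droplets imaged by 488-nm laser-scanning cytometry, 500–530 nm intensity and object ratio to cell channel. Percent activity normalized to 20 uM Triacsin C.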

[1] = measured here: lipid fluorescence (Fed channel) AC50, cells fed with added oleic acid
[2] = measured here: cell number channel AC50, cells fed with added oleic acid

| SMILES | cell number change [%] | AC50 [1] | AC50 [2] |
| --- | --- | --- | --- |
| C=CCn1c(SCC(=O)NCC2CCCO2)nnc1-c1ccccc1 (centres undefined) | -4.2 | 35.5 µM [rising, single point] | – |
| COCCn1cnc2c1c(=O)n(Cc1ccccc1C#N)c(=O)n2Cc1ccccc1 | -20.6 | – | 0.13 µM [falling, full curve, poor fit] |
| CCc1noc(C)c1C(=O)N(CCCOC)c1c(N)n(Cc2ccccc2)c(=O)[nH]c1=O | 7.47 | 29.1 µM [rising, single point] | – |
| Cc1oc2c(c1C(=O)N1CCOCC1)C(=O)c1ccccc1C2=O | -29.7 | 29.1 µM [falling, single point] | – |
| CCC(=O)Nc1ccc2c(c1)nc(CCN1CCCCC1)n2C | 18.5 | 0.461 µM [rising, full curve, poor fit] | – |
| Cc1cccc(C(C(=O)NC2CCCC2)N(C(=O)c2csnn2)C2CCCC2)c1 (centres undefined) | -18.3 | 6.51 µM [falling, single point] | – |
| c1ccc(C(c2nnnn2Cc2ccco2)N2CCN(c3nc4ccccc4s3)CC2)cc1 (centres undefined) | -14.1 | 29.1 µM [falling, single point] | – |
| CC1(C)C(=O)OC(c2ccccc2)C2(CCCC2)C1=O (centres undefined) | -6.67 | 29.1 µM [rising, single point] | – |
| Cn1c(SCC(=O)NCc2ccco2)nnc1-c1c[nH]c2ccccc12 | 0.524 | 16.4 µM [falling, partial curve] | – |
| CCN(C(=O)COC(=O)CCn1c(C)csc1=O)c1c(N)n(Cc2ccccc2)c(=O)[nH]c1=O | 17 | 4.11 µM [falling, single point] | – |
| CCN(CC)c1ccc(NC(=O)c2cnccn2)cc1S(=O)(=O)Nc1ccc(OC)cc1 | – | 25.9 µM [rising, partial curve] | – |
| COc1cc(NC(=O)c2c3c(nc4ccccc24)CCC3)cc(OC)c1 | 79.9 | – | 14.6 µM [rising, partial curve] |
| CCCCn1c(N)c(N(CCC(C)C)C(=O)CCN2C(=O)C3CC=CCC3C2=O)c(=O)[nH]c1=O (centres undefined) | 2.15 | – | – |
| CN1CCC(N2CCCC(C(=O)O)C2)CC1 (centres undefined) | – | 29.1 µM [falling, single point] | – |
| CCCCSc1nnc([C@@H](NC(=O)OC(C)(C)C)C(C)C)o1 | 39.6 | – | 4.11 µM [rising, single point] |
| CC(=O)Nc1ccc(S(=O)(=O)N(C)CC(=O)OCC(=O)c2ccc3c(c2)NC(=O)CO3)cc1 | -10 | 29.1 µM [falling, single point] | – |
| Cc1ccc(S(=O)(=O)NC(=O)N2CCN(Cc3c(F)cccc3Cl)CC2)cc1 | -35.1 | 6.51 µM [falling, partial curve] | 6.51 µM [falling, partial curve] |
| CCN(Cc1ccccc1)C(=O)CCS(=O)(=O)c1cc2c(cc1Cl)NC(=O)CO2 | -19.3 | 0.82 µM [falling, single point] | – |
| CCN(CC(=O)Nc1ccccc1OC)C(=O)c1ccc(N(C)S(=O)(=O)c2ccc(C)cc2)cc1 | -38.2 | 0.731 µM [falling, full curve] | 18.4 µM [falling, partial curve] |
| O=C(Nc1ccccc1)Nc1ccccc1C(=O)NCc1ccco1 | 153 | 18.4 µM [rising, partial curve] | 16.4 µM [rising, single point] |

| SMILES | cell number change [%] | AC50 [1] | AC50 [2] |
| --- | --- | --- | --- |
| S=C(NCCc1ccccc1)NCCc1ccccc1 | 17.2 | – | – |
| CCCCNC(=O)NNc1nc(Cl)cc(C)c1C#N | 2.73 | – | – |
| O=C(CSc1nc(-c2ccccc2)c(-c2ccccc2)[nH]1)Nc1ccc2c(c1)OCO2 | -40.5 | 11.6 µM [falling, partial curve] | 8.2 µM [falling, partial curve] |
| CCN(CC(=O)Nc1c(F)cccc1F)C(=O)/C=C/c1c(C)nn(-c2ccc(F)cc2)c1C | -9.18 | 2.59 µM [rising, partial curve, poor fit] | – |
| O=C(CCOc1ccccc1)Nc1cccc(S(=O)(=O)Nc2ccccc2Cl)c1 | -1.29 | 6.51 µM [falling, single point] | – |
| COC(=O)CN1C(=O)Nc2ccc(C)cc2C1c1ccccc1 (centres undefined) | 11.2 | 0.146 µM [rising, full curve, poor fit] | – |
| CC(=O)N1CCN(c2ccc(Nc3ncnc4c3oc3ccccc34)cc2)CC1 | -22.4 | 16.4 µM [falling, single point] | – |
| Cn1c(N)c(C(=O)COC(=O)c2ccc3c(c2)OCCO3)c(=O)n(C)c1=O | 13.1 | 0.58 µM [rising, full curve, poor fit] | 5.8 µM [rising, single point] |
| NCCC(=O)N1c2ccccc2Sc2ccc(Cl)cc21 | -24.5 | 0.259 µM [falling, full curve] | – |
| Cc1cc(C)n(Cc2ccccc2Cl)n1 | 27.1 | 29.1 µM [rising, single point] | – |
| Cc1cc(C)nc(SCC(=O)Nc2ncc(Cc3ccc(Cl)c(Cl)c3)s2)n1 | 0.219 | 0.366 µM [rising, full curve] | – |
| CCC[C@@H](CN[C@@H](CNC)[C@H](C)CC)NCC1CCC(C(C)(C)C)CC1 (some centres undefined) | -15.6 | – | – |
| Cc1ccc(C(=O)N(CC(C)C)c2nc3ccccc3s2)o1 | -30.7 | – | 20.6 µM [falling, single point] |
| C=C1CCN(c2ccc(C(=O)NCc3ccc(C)cc3)cc2[N+](=O)[O-])CC1 | -26.3 | 20.6 µM [falling, single point] | – |
| CN(C)CCNC(=O)CN1C(=O)COc2ccc(C(C)(C)C)cc21 | -5.2 | 0.366 µM [falling, partial curve, poor fit] | – |
| COc1cccc(CC(=O)OCC(=O)NCCc2ccc(F)cc2)c1 | -20.5 | 3.66 µM [falling, partial curve, poor fit] | 3.26 µM [falling, single point] |
| COc1ccc(NC(=O)c2ccc(-c3ccc([N+](=O)[O-])cc3)o2)cc1OC | 32.7 | – | 1.3 µM [rising, partial curve] |
| CCCOc1ccc(CN(C)c2ncnc(N)n2)cc1 | 27.8 | 8.2 µM [rising, partial curve] | – |
| [O-][n+]1c2c(nn1-c1ccc(Cl)c(Cl)c1)-c1nonc1CC2 | 32.8 | – | 18.4 µM [rising, single point] |
| CCOC(=O)c1cnn(-c2ccc(C(F)(F)F)cn2)c1N | 16.5 | 3.26 µM [rising, single point] | – |

| SMILES | cell number change [%] | AC50 [1] | AC50 [2] |
| --- | --- | --- | --- |
| O=C(NCCCN1CCCC1)c1ccc2c(c1)N(Cc1cccc(Cl)c1)C(=O)c1ccccc1S2=O (centres undefined) | 11.9 | 16.4 µM [rising, single point] | – |
| O=C(NCCCn1ccnc1)c1cc(-c2cccc(O)c2)on1 | 31.1 | – | 14.6 µM [rising, single point] |
| Nc1nc(N)c(N=O)c(OCC2CCCCC2)n1 | 0.872 | – | – |
| O=C(CC12CC3CC(CC(C3)C1)C2)N/N=C/c1ccc([N+](=O)[O-])o1 | -56.6 | 8.2 µM [falling, partial curve] | 16.4 µM [falling, partial curve] |
| CCCOC(=O)C1C2C=CC(C2)C1C(=O)OCC(=O)c1ccccc1 (centres undefined) | – | 5.17 µM [rising, single point] | 3.26 µM [rising, single point] |
| Cc1cc(C)cc(N2Cc3ccccc3C2)c1 | -13.5 | 0.82 µM [falling, full curve] | – |
| O=C(CN1CCN(Cc2ccccc2F)C1=O)NCc1cccnc1 | 12.1 | 0.651 µM [falling, single point] | 0.651 µM [falling, single point] |
| Cc1ccc(OCC(=O)n2nc(C)cc2C)c(C)c1 | -16.5 | 0.517 µM [falling, full curve, poor fit] | – |
| c1coc(CNc2c3c(nc4ccccc24)CCC3)c1 | 9.77 | 2.06 µM [rising, partial curve, poor fit] | 0.651 µM [rising, full curve, poor fit] |
| O=C(NC(=S)Nc1ccc(CN2CCOCC2)cc1)c1ccc2c(c1)OCCO2 | 22.4 | – | 3.26 µM [rising, single point] |
| O=C(Nc1ccc(NC(=O)c2ccccn2)cc1)C(=O)Nc1ccc2c(c1)OCCO2 | – | 20.6 µM [falling, single point] | – |
| Cc1ccc(Nc2ccccc2N)cc1 | 0.615 | 29.1 µM [falling, single point] | – |
| Cn1c(=O)c([N+](=O)[O-])c(Oc2ccccc2)c2ccccc21 | -57.7 | 8.2 µM [falling, partial curve] | 13 µM [falling, partial curve] |
| O=Cc1ccc(OCc2cn3ccccc3n2)cc1 | -16.7 | 0.00461 µM [falling, full curve, poor fit] | – |
| O=C(CCCN1C(=O)/C(=C/c2cccs2)SC1=S)Nc1cccc(C(=O)O)c1 | -16.2 | 0.00411 µM [rising, full curve, poor fit] | – |
| Cc1nnc(SCC(=O)NC2CCCC2)s1 | 12 | 6.51 µM [falling, single point] | – |
| Cc1c(Cl)cccc1NC(=S)N=Nc1c(O)n(CN2CCOCC2)c2ccccc12 | -30 | 1.46 µM [falling, partial curve] | 16.4 µM [falling, single point] |
| O=C(NCc1ccccc1)NCC12CC3CC(CC(C3)C1)C2 | -10.1 | – | 0.794 µM [falling, single point] |

As a short view, 5 of the compounds above.

| SMILES | cell number change [%] | AC50 [1] | AC50 [2] |
| --- | --- | --- | --- |
| Cc1cccc(C(C(=O)NC2CCCC2)N(C(=O)c2csnn2)C2CCCC2)c1 (centres undefined) | -18.3 | 6.51 µM [falling, single point] | – |
| c1ccc(C(c2nnnn2Cc2ccco2)N2CCN(c3nc4ccccc4s3)CC2)cc1 (centres undefined) | -14.1 | 29.1 µM [falling, single point] | – |
| CC1(C)C(=O)OC(c2ccccc2)C2(CCCC2)C1=O (centres undefined) | -6.67 | 29.1 µM [rising, single point] | – |
| Cn1c(SCC(=O)NCc2ccco2)nnc1-c1c[nH]c2ccccc12 | 0.524 | 16.4 µM [falling, partial curve] | – |
| CCN(C(=O)COC(=O)CCn1c(C)csc1=O)c1c(N)n(Cc2ccccc2)c(=O)[nH]c1=O | 17 | 4.11 µM [falling, single point] | – |
